This note sets out measurements from PubChem BioAssay AID1487 (National Center for Advancing Translational Sciences (NCATS), 2009).

SMILES strings stand for the structures. Some of the results follow. These are further read-outs of the screen, such as a control signal, another cell line or another target. No call is given for them. Compounds called inactive in the main read-out are mostly missing here. Words in brackets tell the shape of the fitted curve; partial curves, single points and poor fits give uncertain potencies.

The assay in a line: qHTS Assay for Modulators of Lamin A Splicing. The note with it: HeLa LMNA splicing GFP/RFP minigene ratio, 48 h. Summed up:
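S3 HeLa stable clones carrying a lamin A-EGFP splicing minigene plus DsRed2 were seeded at 600 cells/well in Opti-MEM with 2% FBS, pin-dosed and incubated 48 h at 37°C. Acumen cytometry (488 nm) gave the GFP/RFP total-intensity ratio.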
For orientation: qHTS replaces the single test concentration by a dilution series.

[1] abbreviates: measured here: RFP viability control channel.
The mark [2] stands for this setting: measured here: GFP splicing reporter channel.

In general, AC50 refers to the concentration at which the activity in the assay is half-maximal. In the case of `CCCc1cc(-c2n[nH]c(=S)n2C(C)c2ccccc2)cs1` (centres undefined), the AC50 under setting [1] was 35.5 µM [rising, single point].

`Cc1ccc(N2CCOCC2)c2c1C(=O)c1ccccc1C2=O`: the AC50 is 1.41 µM [rising, partial curve] under setting [2] and 2.51 µM [rising, partial curve] under setting [1].

In the case of `COc1ccc(C2SCCN2C(=S)Nc2cccc(Cl)c2)cc1` (centres undefined), the AC50 under setting [1] is 14.1 µM [rising, partial curve].

Regarding `Cc1ccc(SCCNC(=S)Nc2cc(C)cc(C)c2)cc1`, the AC50 was 12.6 µM [rising, partial curve] under setting [2] and 31.6 µM [rising, single point] under setting [1].

As to `c1ccc(-c2noc(CSc3nc4ccccc4o3)n2)cc1`, the AC50 under setting [1] was 17.8 µM [rising, single point].

Consider `O=C(Cc1sc(Nc2ccccc2)nc1-c1ccccc1)NCc1ccccc1`, for which the AC50 is 35.5 µM [falling, single point] under setting [2] and 35.5 µM [falling, single point] under setting [1].

Consider `Cc1ccc(N2C(=O)CS(=O)(=O)C23C(=O)Nc2ccccc23)cc1C` (centres undefined), for which the AC50 under setting [1] is 0.0891 µM [falling, full curve, poor fit].

Turning to `O=C(CSc1nc2ccccc2s1)Nc1ccc(Cl)c(S(=O)(=O)N2CCOCC2)c1`, under setting [1], the AC50 is 12.6 µM [rising, partial curve].

As for `CCn1c(C)c(C2=CCN(S(=O)(=O)c3ccccc3)CC2)c2ccccc21`, the AC50 under setting [1] is 15.8 µM [rising, single point].

`Cc1ccc(Cl)cc1NC(=O)c1ocnc1C`: the AC50 was 3.55 µM [falling, single point] under setting [2] and 3.98 µM [falling, partial curve] under setting [1].

As for `COC(=O)c1c(-c2ccc(C)cc2)csc1NC(=O)Cc1ccc(OC)c(OC)c1`, the AC50 under setting [2] was 11.2 µM [rising, partial curve, poor fit] and the concentration at half-maximal activity (AC50) under setting [1] is 10 µM [rising, partial curve].

Regarding `COc1ccc(/C=C2/C(=O)N(c3nc4ccccc4s3)N=C2CSc2ccc(Cl)cc2)cc1`, under setting [1], the AC50 is 17.8 µM [rising, single point].

For the compound `COc1cccc(-n2nnnc2SCC(=O)c2ccc(NC(C)=O)cc2)c1`, the AC50 under setting [2] was 2.82 µM [falling, partial curve] and the AC50 under setting [1] was 2.24 µM [falling, partial curve].

`CCN1CCN(CC(=O)c2ccc(OC)cc2)CC1`: the AC50 under setting [1] was 0.501 µM [rising, full curve, poor fit].

Regarding `COc1ccc(/C=C/C(=O)c2c(O)ccc3c(C)cc(=O)oc23)cc1`, the AC50 was 35.5 µM [falling, single point] under setting [2] and 3.16 µM [falling, single point] under setting [1].

As for `COc1ccc(O)c(C(=O)c2cc(C#N)c(=O)n(CC3CCCO3)c2)c1` (centres undefined), under setting [1], the AC50 is 35.5 µM [falling, partial curve, poor fit].

On to `N#Cc1cccc(-c2cc(NCc3cccs3)ncn2)c1`, for which the AC50 under setting [1] was 0.158 µM [falling, full curve, poor fit].

As to `O=C(Nc1ccc2nc(SCc3ccc(Cl)cc3)sc2c1)c1ccccc1C(=O)N1CCOCC1`, the AC50 was 35.5 µM [falling, single point] under setting [2] and 35.5 µM [falling, single point] under setting [1].

For the compound `NC(=O)C1C(c2ccccc2)=C1c1ccccc1`, the AC50 was 12.6 µM [rising, single point] under setting [2] and 25.1 µM [rising, single point] under setting [1].

In the case of `CC(=O)c1ccc(NC(=O)c2ccc(S(=O)(=O)c3ccccc3)cc2)cc1`, the AC50 under setting [1] was 17.8 µM [rising, single point].

Take `O=C(N/N=C/c1ccc(OC2CSC2)cc1)c1ccccc1`: the concentration at half-maximal activity (AC50) is 7.08 µM [falling, partial curve, poor fit] under setting [2] and 7.94 µM [falling, partial curve] under setting [1].

For `CCOc1ccccc1N1CCN(C(=O)C2c3ccccc3Oc3ccccc32)CC1`, the AC50 was 35.5 µM [falling, single point] under setting [2] and 35.5 µM [falling, single point] under setting [1].

As for `O=C(Nc1ccc2c(c1)OCO2)c1ccc(COc2ccc3c(c2)CCC3)o1`, the AC50 under setting [1] was 8.91 µM [rising, partial curve, poor fit].

Take `Cc1cccc(Cc2nnc(CCC(=O)N(C)C3CCOC3)o2)c1` (centres undefined): the AC50 under setting [1] was 0.0447 µM [falling, full curve, poor fit].

For the compound `COc1ccc2c(=O)c(C(=O)NCCc3ccc(OC)c(OC)c3)c[nH]c2c1`, the AC50 under setting [1] was 7.94 µM [rising, partial curve, poor fit].

With `COc1cc(C2Nc3ccc4ncccc4c3C3=C2C(=O)CCC3)cc(OC)c1O` (centres undefined), the AC50 under setting [1] was 3.16 µM [rising, single point].

As for `CCCCNc1ccc(S(=O)(=O)c2cccc([N+](=O)[O-])c2)cc1[N+](=O)[O-]`, the AC50 reads like this: under setting [2], 17.8 µM [rising, single point]; under setting [1], 20 µM [rising, partial curve].

Consider `O=C(NCC(c1ccco1)N1CCN(c2ccc(F)cc2)CC1)OCc1ccccc1` (centres undefined), for which the concentration at half-maximal activity (AC50) under setting [1] is 35.5 µM [rising, single point].

For `CCN(C(=O)CN1C(=O)c2ccccc2Sc2ccc(C(=O)OC)cc21)c1cccc(C)c1`, under setting [1], the AC50 is 11.2 µM [rising, partial curve].

For the compound `O=C(O/N=C\c1ccc(N2CCCCC2)c([N+](=O)[O-])c1)c1cccc(C(F)(F)F)c1`, the AC50 under setting [1] was 5.62 µM [rising, single point].

With `COc1ccc(C(=O)c2ccccc2O)c(O)c1`, the AC50 by setting is: under setting [2], 0.0355 µM [falling, full curve, poor fit]; under setting [1], 14.1 µM [rising, single point].

As for `Cc1nc(C)c(C(=O)NCc2ccccc2Cl)o1`, the AC50 reads like this: under setting [2], 10 µM [rising, partial curve, poor fit]; under setting [1], 12.6 µM [rising, partial curve].

In the case of `Cc1nc(C)c(C(=O)Nc2ccc(Oc3ccccc3)cc2)o1`, the AC50 under setting [1] was 3.98 µM [rising, partial curve].

On to `CC1CC(C)CN(c2ncnc3c2cnn3Cc2ccc(Cl)cc2)C1` (centres undefined), for which the AC50 was 28.2 µM [rising, single point] under setting [2] and 31.6 µM [rising, single point] under setting [1].

For the compound `Cc1c(NS(=O)(=O)c2cccs2)c(=O)n(-c2ccccc2)n1C`, the concentration at half-maximal activity (AC50) under setting [1] was 3.98 µM [falling, partial curve, poor fit].

Regarding `Cc1c(C(=O)N2CCN(c3ccc(C(F)(F)F)cn3)CC2)oc2ccccc12`, under setting [1], the AC50 is 35.5 µM [rising, single point].

On to `Cn1c(=O)n(CCOc2ccccc2Cl)c2ccccc21`, for which the AC50 is 17.8 µM [rising, partial curve, poor fit] under setting [2] and 20 µM [rising, partial curve, poor fit] under setting [1].

In the case of `CC(C)C1CC(=O)NC(SCC(=O)Nc2ccc(Br)cc2)=C1C#N` (centres undefined), the AC50 is, setting by setting: under setting [2], 8.91 µM [rising, partial curve]; under setting [1], 12.6 µM [rising, partial curve].

Consider `Cc1ccc2ccc3cc(C(=O)N4CCN(c5ccccc5F)CC4)nc3c2[nH]1`, for which the half-maximal activity concentration (AC50) is, setting by setting: under setting [2], 0.0141 µM [falling, full curve, poor fit]; under setting [1], 0.0112 µM [falling, full curve, poor fit].

`Cc1cccc(-c2nc(SCc3cc(=O)c4c(C)cc(C)cc4[nH]3)n[nH]2)c1`: the AC50 under setting [1] was 35.5 µM [falling, single point].

With `Clc1ccc(C2=Nn3c(nnc3-c3n[nH]c4c3CCC4)SC2)cc1Cl`, the AC50 is 35.5 µM [falling, single point] under setting [2] and 35.5 µM [falling, single point] under setting [1].

For the compound `COc1ccc(C)cc1NC(=O)CSc1nnc(-c2ccco2)n1Cc1ccco1`, the concentration at half-maximal activity (AC50) reads like this: under setting [2], 14.1 µM [rising, single point]; under setting [1], 12.6 µM [rising, single point].

On to `CCOC(=O)c1c(-c2ccccc2)csc1NC(=O)CCN1CCOCC1`, for which the AC50 under setting [1] is 12.6 µM [rising, partial curve].

For `CCC(C)C(=O)OC1CCC=C2C=CC(C)C(CCC3CC(O)CC(=O)O3)[C@@H]21` (some centres undefined), the concentration at half-maximal activity (AC50) by setting is: under setting [2], 35.5 µM [falling, single point]; under setting [1], 35.5 µM [falling, single point].

Turning to `Cc1ccc(N=c2oc3cc(O)ccc3cc2C(N)=O)cc1`, the AC50 is 12.6 µM [rising, partial curve, poor fit] under setting [2] and 25.1 µM [rising, single point] under setting [1].

With `COc1ccccc1Oc1cc(C#N)c(C#N)cc1-n1nnc2ccccc21`, the AC50 runs as follows: under setting [2], 22.4 µM [rising, partial curve, poor fit]; under setting [1], 35.5 µM [rising, single point].

Take `CSc1nnc(-c2ccccc2SC)o1`: the AC50 under setting [1] is 0.00282 µM [falling, full curve, poor fit].

In the case of `CC(=O)N1CCCc2ccc(NC(=O)c3ccc(OC(C)C)cc3)cc21`, the AC50 under setting [2] is 25.1 µM [falling, partial curve, poor fit] and the AC50 under setting [1] is 0.00708 µM [falling, full curve].

On to `Cc1ccc2nc(COc3ccccc3NC(=O)Nc3ccc(F)c(Cl)c3)cc(=O)n2c1`, for which the AC50 is 35.5 µM [falling, single point] under setting [2] and 35.5 µM [falling, partial curve] under setting [1].

In the case of `c1ccc(CCn2nnnc2C(c2cccnc2)N2CCN(c3nc4ccccc4s3)CC2)cc1` (centres undefined), the AC50 by setting is: under setting [2], 14.1 µM [rising, partial curve]; under setting [1], 15.8 µM [rising, partial curve].

As for `Cc1ccc(NS(=O)(=O)c2cc(C(=O)NCCSC3CCCCC3)ccc2C)cc1`, under setting [1], the AC50 is 11.2 µM [rising, partial curve].

With `Cc1ccccc1S(=O)(=O)Cc1ccc(C(=O)N2CCN(c3cccc(C)c3C)CC2)o1`, the AC50 runs as follows: under setting [2], 15.8 µM [falling, partial curve]; under setting [1], 2.82 µM [rising, partial curve].
